Paper doi:10.1101/2024.09.10.612170
Results are given in words; binding and its absence hold for the method and conditions named. Binding seen in cells or lysates may run through a third protein. For some of these results: A result given as binding can be weak or reduced; the word gives no strength. Sequences can lack the tags named with a protein. One block for each molecule: values may come before it.

Key:
[1] = biological target: T1, FLAG-tagged EB1 (Drosophila) (UniProt Q9XZ57); test: co-IP
T1 sequence: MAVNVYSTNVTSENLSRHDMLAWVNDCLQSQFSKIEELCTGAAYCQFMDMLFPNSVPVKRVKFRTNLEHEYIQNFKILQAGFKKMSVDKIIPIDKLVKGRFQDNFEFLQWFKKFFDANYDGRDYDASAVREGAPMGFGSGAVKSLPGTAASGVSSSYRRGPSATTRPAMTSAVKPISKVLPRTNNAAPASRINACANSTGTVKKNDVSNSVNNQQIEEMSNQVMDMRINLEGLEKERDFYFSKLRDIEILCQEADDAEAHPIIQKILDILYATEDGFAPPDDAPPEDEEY

[2] = biological target: GST-KIF3BT (GST-tagged tail of human KIF3B) (human); test: pull-down
[3] = biological target: GST-KIF3AT (GST-tagged tail of human KIF3A) (human); test: pull-down
[4] = biological target: GST-tagged KLP68D tail fragment (Drosophila); test: pull-down

binding [1]: no binding
Molecule: tail-less KLP68DΔT:YFP (Drosophila) (domain or fragment)

binding [2]: no binding
binding [3]: no binding
binding [4]: binds
B1: EB1:GFP (End-binding protein 1 with GFP) (protein, UniProt Q9XZ57 1-290)
chain: T1 sequence
